Here are results for 1 sequence from patent US5763209.

This data set concerns the target Egr-1 Δ3-47 del3-47 (Mus musculus) (UniProt P08046). In words: EMSA. To be noted: HeLa extract, poly dI-dC, room temperature; residues 331-419 alone required; protein in a lysate after overexpression; label: 32P. A general note: A gel shift assay detects complexes by their altered migration in electrophoresis.

Where cells or extracts were used, other partners may take part.

Regarding “CGCCCTCGCCCCCGCGCCGGG (double strand) [EBS-1]”, the binding result is recorded as “binds”.
